Experiment [1] has as its target Flag-AR (androgen receptor, from pCMV-AR-Flag) (UniProt P10275). In words: co-IP; HEK293T cells co-transfected with plasmids expressing Flag-AR and His-TOMM20 (wild type or mutants); extracts in RIPA buffer with protease inhibitors, antibody at 4 °C overnight, protein A/G-magnetic beads 2 h; which antibody precipitated is not told.
Another experiment has as its target GST-AR(FL) (UniProt P10275). The experiment in a line: pull-down; GST fusion proteins on glutathione-sepharose resins incubated with cell lysates of LNCaP cells (overexpressing TOMM20) at 4 °C for 12 h, washed four times, immunoblot with anti-TOMM20 antibody; only the target purified. A general note: Immunoblotting shows a protein as a band on a membrane.

Chains of the proteins cited; added tags and fusions are not shown.
UniProt P10275: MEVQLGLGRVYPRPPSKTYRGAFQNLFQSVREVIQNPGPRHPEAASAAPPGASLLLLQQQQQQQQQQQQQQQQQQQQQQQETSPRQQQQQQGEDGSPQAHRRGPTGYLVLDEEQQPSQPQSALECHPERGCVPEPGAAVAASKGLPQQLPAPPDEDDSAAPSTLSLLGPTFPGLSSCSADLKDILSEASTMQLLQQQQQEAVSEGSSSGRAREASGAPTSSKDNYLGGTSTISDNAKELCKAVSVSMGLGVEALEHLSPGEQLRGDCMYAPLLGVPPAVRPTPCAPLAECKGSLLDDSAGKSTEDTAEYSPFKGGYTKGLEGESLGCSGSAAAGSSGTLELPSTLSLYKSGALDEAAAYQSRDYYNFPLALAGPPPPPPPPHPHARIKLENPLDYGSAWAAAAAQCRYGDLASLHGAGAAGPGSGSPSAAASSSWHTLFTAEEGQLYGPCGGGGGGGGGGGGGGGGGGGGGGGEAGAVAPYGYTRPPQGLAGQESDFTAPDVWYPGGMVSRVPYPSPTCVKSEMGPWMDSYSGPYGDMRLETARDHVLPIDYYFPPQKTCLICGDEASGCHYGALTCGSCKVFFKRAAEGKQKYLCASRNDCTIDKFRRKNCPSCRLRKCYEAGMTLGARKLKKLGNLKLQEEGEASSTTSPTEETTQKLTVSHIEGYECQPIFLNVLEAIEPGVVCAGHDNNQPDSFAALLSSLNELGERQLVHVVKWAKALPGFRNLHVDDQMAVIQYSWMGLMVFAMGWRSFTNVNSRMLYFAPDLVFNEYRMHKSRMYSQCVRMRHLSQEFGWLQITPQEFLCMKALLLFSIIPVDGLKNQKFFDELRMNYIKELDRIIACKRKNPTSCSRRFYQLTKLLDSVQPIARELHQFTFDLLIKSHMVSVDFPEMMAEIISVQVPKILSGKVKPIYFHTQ
UniProt Q15388: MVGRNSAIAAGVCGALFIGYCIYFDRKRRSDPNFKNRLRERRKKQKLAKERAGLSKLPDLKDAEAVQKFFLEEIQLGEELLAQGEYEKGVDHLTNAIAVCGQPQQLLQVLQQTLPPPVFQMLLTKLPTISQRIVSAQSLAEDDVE

These are yes or no findings as the source states them, for the method shown. In cells and extracts the contact can be indirect. Some results given as binding are weak or reduced against the parent protein; the word gives no strength.

For “His/Myc-TOMM20 (translocase of the outer mitochondrial membrane complex subunit 20), wild type (from UniProt Q15388 1-145)”, in experiment [1], the binding entry is “binds”.

As for “TOMM20 in cell lysates of LNCaP cells overexpressing TOMM20 (from UniProt Q15388 1-145)”, the binding result in the experiment with GST-AR(FL) is recorded as “binds”.

The record behind these values is paper PMC10413764.
